Laboratory results taken from paper PMC4237246.
These are yes or no findings as the source states them, for the method shown. In cells and extracts the contact can be indirect. Some results given as binding are weak or reduced against the parent protein; the word gives no strength. For some of these results: Where a sequence is shown, tags or fusion partners need not be part of it.

By UniProt entry, the sequences of proteins in these tests, tags left out.
UniProt P21796: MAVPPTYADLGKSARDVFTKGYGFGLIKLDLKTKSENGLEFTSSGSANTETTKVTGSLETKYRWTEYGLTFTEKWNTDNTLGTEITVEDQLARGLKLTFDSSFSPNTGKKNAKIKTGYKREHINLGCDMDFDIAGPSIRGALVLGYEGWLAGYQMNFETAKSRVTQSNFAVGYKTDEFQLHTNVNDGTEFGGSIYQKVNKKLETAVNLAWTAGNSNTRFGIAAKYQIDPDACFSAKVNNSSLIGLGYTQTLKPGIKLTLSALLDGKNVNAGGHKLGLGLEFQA
UniProt Q07820: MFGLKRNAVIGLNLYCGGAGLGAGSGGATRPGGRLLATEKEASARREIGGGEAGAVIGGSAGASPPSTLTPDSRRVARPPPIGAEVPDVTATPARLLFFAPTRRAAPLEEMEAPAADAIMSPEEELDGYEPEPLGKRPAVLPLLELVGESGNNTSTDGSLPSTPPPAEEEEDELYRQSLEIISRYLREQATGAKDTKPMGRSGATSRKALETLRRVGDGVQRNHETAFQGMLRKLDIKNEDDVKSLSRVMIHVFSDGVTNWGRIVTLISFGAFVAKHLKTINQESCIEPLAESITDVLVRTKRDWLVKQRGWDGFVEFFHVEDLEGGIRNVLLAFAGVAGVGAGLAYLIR

What was measured:
GST-VDAC1 fusion protein [1] = molecular target: GST-VDAC1 fusion protein (UniProt P21796); test: pull-down; GST-VDAC1, 2 or 3 bound to Glutathione Sepharose 4B, incubated with lysates of MEF overexpressing human Mcl-1; western blot for Mcl-1; only the target purified
GST-VDAC3 fusion protein = molecular target: T1, GST-VDAC3 fusion protein (UniProt Q9Y277); test: as above
T1 sequence: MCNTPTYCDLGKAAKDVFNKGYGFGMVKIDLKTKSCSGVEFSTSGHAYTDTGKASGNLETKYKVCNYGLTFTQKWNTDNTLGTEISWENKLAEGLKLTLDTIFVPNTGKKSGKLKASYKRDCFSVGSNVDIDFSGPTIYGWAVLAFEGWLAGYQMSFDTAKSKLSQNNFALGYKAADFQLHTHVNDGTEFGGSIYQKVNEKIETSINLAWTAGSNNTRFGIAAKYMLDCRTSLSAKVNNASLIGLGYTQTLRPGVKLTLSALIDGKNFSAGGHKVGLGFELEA

GST-VDAC1 fusion protein [2] = molecular target: GST-VDAC1 fusion protein (UniProt P21796); test: pull-down; GST-VDAC1 on Glutathione Sepharose 4B, MEF cell lysates pretreated with control or VDAC-based peptides (N-ter, L14-15); western blot for Mcl-1 and Bcl-xL; only the target purified

| binding (GST-VDAC1 fusion protein [1]) | binding (GST-VDAC3 fusion protein) | binding (GST-VDAC1 fusion protein [2]) | Substance |
| --- | --- | --- | --- |
| binds | binds | binds | human Mcl-1 overexpressed in mouse embryonic fibroblasts (from UniProt Q07820 1-350) |
| – | – | binds | Bcl-xL in MEF cell lysate (from UniProt Q64373-1 1-233) |
